The structures given here were assigned with low confidence; some may be wrong.
Molecular target: Recombinant human DGAT2 protein (Homo sapiens, UniProt Q96PD7)
Experiment: Measurement of inhibitory effect against DGAT2 enzyme activity (SPA, Phospholipid FlashPlate, [14C]-TG production)
Details: concentration inhibiting [14C]-labeled triacyl glycerol (TG) production by 50%; 2 μg DGAT2-membrane protein from Sf-21 cells, 37° C.

The chains behind the UniProt entries cited, without tags or fusion partners.
UniProt Q96PD7, whole entry: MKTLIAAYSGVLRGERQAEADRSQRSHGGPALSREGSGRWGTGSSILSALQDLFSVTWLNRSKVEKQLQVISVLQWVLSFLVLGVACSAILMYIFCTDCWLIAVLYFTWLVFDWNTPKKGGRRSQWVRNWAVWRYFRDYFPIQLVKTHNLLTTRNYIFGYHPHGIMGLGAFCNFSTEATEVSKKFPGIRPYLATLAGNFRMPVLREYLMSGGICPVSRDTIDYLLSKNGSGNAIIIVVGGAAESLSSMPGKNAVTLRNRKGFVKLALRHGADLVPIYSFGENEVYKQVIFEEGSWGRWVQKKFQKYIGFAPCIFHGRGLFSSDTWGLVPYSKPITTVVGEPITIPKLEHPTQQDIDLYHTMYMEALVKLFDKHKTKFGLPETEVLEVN

Row | IC50 [µM] | Structure (SMILES)
1 | 1.2 | CCOc1ccccc1O[C@@H]1CCCN(c2nccc(NC(=O)CCC34CCC(C(=O)O)(CC3)CC4)n2)C1
2 | 1.3 | CCOc1ccccc1O[C@@H]1CCCN(c2cncc(NC(=O)C3CCN(c4ccc(C(C)(C)C(=O)O)cc4)CC3)n2)C1
